The target of this experiment is T1, PAG1(α7) CP subunit bearing a C-terminal FLAG tag (Arabidopsis thaliana) (UniProt O23715).
T1 sequence: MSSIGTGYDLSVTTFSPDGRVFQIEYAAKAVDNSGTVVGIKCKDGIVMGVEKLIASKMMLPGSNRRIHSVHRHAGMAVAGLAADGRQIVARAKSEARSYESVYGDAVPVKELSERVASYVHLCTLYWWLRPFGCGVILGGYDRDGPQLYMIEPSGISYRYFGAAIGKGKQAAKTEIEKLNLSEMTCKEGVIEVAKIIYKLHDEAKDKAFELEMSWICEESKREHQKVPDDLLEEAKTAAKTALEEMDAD
The experiment is described as follows: co-IP; immune-depletion: resuspended APFp from PAG1-FLAG pag1-1 leaves applied three times to anti-FLAG M2 resin at 4 °C in buffer A (50 mM HEPES pH 7.5, 50 mM NaCl, 10% glycerol, 10 mM MgCl2, 20 mM ATP, 2 mM PMSF, 0.6% Na2S2O5); APFp, supernatant and immunoprecipitated fractions immunoblotted.

These are yes or no findings as the source states them, for the method shown. Binding seen in cells or lysates may run through a third protein. Some entries that bind do so weakly or less than the wild type. Where a sequence is shown, tags or fusion partners need not be part of it.

B1: PBA1(β1) CP subunit (protein, UniProt Q8LD27 13-233)
chain: TTIIGVTYNGGVVLGADSRTSTGMYVANRASDKITQLTDNVYVCRSGSAADSQVVSDYVRYFLHQHTIQHGQPATVKVSANLIRMLAYNNKNMLQTGLIVGGWDKYEGGKIYGIPLGGTVVEQPFAIGGSGSSYLYGFFDQAWKDNMTKEEAEQLVVKAVSLAIARDGASGGVVRTVIINSEGVTRNFYPGDKLQLWHEELEPQNSLLDILNAAGPEPMAM
B1: the binding result is “binds”.

For the origin of these results see article PMC11829042, “Proteasomes accumulate in the plant apoplast where they participate in microbe-associated molecular pattern (MAMP)-triggered pathogen defense” (Nature Communications, 2025).
